Data: the supplement of paper PMC11006884
This list holds what a sample rich in targets with a hit left over. Single values of this set are uncertain. Only a part is listed here, and it is no random draw.

By UniProt entry, the sequences of proteins in these tests, tags left out. Where a name states a change or a piece, a line headed by the entry shows the natural chain unless it says otherwise.
UniProt Q8TB52: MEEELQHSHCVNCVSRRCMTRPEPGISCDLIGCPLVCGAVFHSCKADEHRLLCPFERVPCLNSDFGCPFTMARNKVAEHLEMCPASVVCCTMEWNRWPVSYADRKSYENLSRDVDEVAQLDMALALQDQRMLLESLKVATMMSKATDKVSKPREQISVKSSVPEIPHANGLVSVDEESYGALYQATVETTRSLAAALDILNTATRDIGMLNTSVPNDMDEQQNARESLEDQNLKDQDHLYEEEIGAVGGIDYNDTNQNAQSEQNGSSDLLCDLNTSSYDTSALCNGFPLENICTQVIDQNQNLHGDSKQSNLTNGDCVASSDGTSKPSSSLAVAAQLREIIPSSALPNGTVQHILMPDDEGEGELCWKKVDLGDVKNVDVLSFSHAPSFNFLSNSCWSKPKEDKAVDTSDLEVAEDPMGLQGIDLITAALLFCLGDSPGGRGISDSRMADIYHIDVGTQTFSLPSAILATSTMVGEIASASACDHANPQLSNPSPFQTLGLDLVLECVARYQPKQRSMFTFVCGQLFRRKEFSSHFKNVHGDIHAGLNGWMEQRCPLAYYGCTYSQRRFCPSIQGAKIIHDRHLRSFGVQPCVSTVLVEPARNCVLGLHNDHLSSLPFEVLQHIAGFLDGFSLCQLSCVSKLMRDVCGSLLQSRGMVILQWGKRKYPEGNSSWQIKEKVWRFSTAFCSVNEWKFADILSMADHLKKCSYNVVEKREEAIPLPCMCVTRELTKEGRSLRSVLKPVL
UniProt Q8NFH5: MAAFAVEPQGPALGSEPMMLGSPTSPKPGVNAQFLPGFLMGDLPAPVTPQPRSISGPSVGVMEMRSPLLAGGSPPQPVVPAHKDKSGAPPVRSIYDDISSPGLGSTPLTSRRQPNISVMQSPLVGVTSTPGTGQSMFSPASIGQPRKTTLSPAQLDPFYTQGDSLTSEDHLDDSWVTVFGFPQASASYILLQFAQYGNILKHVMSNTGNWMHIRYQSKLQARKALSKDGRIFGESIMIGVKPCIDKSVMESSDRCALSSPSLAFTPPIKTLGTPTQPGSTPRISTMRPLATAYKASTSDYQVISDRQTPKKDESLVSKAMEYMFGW
UniProt Q8NHV4, whole entry: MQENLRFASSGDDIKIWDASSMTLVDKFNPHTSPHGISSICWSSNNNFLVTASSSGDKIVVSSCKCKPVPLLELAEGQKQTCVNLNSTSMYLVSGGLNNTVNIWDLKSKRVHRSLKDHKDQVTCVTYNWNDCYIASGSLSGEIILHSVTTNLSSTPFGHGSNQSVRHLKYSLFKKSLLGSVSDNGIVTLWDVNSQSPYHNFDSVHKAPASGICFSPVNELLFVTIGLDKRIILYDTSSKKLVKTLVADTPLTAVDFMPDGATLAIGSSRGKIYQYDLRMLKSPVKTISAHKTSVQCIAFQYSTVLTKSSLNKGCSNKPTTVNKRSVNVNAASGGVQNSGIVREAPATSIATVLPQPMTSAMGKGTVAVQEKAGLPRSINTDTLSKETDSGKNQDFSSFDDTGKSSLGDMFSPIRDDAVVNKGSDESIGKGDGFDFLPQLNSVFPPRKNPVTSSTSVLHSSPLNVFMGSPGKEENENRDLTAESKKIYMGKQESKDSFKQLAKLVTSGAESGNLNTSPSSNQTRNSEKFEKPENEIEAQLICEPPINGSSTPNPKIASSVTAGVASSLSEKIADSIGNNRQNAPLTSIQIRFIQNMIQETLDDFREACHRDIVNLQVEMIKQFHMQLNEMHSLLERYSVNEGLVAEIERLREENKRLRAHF
UniProt Q8WUM0: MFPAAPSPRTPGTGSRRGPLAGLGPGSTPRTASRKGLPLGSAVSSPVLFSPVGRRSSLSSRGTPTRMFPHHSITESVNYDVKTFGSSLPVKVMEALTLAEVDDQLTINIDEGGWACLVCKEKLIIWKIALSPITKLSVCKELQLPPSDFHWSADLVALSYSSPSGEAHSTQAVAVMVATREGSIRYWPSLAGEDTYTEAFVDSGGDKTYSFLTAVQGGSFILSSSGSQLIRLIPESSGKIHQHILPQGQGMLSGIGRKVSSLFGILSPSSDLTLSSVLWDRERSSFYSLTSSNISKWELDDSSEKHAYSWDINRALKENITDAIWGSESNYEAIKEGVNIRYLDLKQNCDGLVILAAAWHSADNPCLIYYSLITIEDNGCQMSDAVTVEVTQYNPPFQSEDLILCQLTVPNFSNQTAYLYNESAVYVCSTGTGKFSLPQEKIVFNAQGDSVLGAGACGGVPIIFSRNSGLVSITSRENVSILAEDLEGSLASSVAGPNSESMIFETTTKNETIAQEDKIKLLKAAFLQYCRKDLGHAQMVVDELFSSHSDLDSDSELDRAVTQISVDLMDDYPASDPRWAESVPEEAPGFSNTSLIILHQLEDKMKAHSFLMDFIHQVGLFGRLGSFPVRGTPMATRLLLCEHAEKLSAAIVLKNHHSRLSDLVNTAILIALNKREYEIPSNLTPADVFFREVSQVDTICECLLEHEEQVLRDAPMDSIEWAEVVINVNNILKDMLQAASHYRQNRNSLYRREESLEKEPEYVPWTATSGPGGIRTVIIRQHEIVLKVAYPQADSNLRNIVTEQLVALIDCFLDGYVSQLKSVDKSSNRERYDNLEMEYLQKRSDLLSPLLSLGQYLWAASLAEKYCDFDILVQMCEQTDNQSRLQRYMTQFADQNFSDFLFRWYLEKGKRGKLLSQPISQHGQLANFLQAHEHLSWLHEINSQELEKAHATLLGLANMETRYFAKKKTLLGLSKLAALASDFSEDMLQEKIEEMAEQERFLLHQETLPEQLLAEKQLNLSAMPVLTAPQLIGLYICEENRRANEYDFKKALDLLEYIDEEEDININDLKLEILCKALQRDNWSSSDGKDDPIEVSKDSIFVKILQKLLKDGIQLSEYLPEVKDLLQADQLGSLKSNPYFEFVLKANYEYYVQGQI
UniProt Q8WV74: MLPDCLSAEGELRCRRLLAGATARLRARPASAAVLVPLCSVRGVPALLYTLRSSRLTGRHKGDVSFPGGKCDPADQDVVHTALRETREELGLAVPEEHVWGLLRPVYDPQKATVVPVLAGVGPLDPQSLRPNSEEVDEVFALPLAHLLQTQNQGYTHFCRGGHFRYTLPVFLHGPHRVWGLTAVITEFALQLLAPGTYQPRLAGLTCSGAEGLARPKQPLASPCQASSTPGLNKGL
UniProt Q8WXA9: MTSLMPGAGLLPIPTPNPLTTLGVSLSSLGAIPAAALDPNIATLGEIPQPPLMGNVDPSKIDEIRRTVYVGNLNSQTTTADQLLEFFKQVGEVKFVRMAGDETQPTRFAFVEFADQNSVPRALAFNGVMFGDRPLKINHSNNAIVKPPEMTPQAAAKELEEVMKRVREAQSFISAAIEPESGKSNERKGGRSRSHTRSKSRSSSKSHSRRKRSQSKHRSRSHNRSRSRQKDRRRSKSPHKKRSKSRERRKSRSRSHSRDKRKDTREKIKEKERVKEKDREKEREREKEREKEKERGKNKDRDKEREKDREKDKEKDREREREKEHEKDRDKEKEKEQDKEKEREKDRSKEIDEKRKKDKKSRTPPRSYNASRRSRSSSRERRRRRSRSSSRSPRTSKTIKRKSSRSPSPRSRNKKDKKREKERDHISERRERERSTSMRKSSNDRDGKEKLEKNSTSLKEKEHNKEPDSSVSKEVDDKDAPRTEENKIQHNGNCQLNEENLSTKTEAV
UniProt Q8N201, whole entry, looked up: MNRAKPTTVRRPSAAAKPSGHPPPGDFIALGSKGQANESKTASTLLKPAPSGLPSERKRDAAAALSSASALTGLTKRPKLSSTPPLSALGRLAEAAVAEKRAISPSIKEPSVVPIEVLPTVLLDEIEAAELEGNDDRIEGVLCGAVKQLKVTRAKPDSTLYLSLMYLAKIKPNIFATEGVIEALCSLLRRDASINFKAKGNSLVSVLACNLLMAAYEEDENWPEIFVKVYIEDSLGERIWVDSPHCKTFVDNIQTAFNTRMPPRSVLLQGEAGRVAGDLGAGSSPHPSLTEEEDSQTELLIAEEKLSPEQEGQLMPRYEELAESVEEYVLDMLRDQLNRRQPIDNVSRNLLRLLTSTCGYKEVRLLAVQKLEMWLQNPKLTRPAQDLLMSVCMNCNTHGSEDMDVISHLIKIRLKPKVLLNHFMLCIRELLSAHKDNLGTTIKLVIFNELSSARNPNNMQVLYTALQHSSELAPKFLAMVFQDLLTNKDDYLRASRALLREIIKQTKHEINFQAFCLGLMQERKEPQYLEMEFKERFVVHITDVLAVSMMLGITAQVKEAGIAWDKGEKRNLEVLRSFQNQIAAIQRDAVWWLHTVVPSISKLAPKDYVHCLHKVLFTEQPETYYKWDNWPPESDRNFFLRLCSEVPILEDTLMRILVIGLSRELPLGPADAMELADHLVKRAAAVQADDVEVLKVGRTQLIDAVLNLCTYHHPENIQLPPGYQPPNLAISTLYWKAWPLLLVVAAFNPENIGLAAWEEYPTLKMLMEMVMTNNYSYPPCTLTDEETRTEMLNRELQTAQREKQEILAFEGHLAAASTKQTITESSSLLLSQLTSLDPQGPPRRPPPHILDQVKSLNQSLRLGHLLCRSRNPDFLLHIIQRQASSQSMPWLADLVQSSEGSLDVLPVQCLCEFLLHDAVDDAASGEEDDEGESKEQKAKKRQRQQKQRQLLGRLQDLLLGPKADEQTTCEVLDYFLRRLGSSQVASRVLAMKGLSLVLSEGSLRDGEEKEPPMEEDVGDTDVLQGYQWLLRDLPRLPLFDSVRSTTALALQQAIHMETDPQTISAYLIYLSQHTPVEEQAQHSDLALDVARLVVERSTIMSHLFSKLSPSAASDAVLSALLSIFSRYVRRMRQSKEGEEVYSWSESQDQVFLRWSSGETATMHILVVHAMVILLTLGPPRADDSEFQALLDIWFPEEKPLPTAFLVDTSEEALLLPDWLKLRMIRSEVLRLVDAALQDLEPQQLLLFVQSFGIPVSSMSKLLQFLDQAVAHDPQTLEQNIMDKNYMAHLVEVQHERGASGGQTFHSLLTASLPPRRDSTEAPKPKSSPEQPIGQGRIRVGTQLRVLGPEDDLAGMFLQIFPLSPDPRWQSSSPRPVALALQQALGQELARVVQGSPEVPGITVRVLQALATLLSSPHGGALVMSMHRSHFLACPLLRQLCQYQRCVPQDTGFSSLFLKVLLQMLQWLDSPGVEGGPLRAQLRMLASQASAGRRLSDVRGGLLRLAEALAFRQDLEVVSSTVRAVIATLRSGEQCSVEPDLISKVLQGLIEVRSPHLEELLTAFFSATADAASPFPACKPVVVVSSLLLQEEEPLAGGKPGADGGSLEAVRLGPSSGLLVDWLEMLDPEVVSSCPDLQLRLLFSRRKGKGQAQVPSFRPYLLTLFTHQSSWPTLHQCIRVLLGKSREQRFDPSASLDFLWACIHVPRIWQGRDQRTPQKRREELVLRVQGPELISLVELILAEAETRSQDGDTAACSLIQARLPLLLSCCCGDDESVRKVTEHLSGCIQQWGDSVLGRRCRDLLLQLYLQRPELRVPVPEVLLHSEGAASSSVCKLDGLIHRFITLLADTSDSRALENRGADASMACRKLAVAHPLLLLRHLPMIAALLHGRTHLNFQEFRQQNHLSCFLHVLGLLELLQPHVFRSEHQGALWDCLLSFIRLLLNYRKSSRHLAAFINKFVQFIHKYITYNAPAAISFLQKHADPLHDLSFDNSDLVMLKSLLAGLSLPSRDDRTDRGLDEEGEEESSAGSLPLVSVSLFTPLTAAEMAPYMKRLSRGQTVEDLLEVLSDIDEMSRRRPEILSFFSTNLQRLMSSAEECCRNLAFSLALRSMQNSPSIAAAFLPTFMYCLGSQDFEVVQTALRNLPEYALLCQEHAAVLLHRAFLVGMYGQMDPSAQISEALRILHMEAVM
UniProt Q8NI60: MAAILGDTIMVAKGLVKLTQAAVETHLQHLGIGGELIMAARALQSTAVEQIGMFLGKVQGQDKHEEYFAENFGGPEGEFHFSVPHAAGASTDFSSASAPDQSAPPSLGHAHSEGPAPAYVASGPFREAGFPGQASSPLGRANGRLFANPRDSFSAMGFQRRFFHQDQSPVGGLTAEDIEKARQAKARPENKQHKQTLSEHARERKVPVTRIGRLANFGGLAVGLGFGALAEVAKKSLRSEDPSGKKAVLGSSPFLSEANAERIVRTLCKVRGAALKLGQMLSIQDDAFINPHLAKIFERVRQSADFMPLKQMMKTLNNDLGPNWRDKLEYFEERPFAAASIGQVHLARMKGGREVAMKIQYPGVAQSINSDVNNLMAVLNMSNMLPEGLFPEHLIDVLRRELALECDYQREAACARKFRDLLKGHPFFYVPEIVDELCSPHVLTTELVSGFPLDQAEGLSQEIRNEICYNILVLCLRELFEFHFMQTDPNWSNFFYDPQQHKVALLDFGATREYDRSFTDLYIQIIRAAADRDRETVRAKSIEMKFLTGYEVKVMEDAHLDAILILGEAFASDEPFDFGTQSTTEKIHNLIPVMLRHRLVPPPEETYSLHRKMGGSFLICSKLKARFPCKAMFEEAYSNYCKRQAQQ

Compound: COC(=O)/C=C/c1ccccc1 [methyl cinnamate]
Assay: log2 ratio of iodoacetamide-alkyne labeling of the cysteine site, DMSO over compound (competition); higher = stronger covalent engagement of the cysteine by the compound, active = 1 or more
Settings: 500 µM; treatment time 1 h; system: HEK293T cell lysate
Summary of the method: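 HEK293T lysate (2 mg/mL) was treated with DMSO or electrophile (500 µM, 1 h, ambient temperature), then iodoacetamide alkyne (1 h), clicked to sCIP-TMT reagents, pooled, trypsin-digested overnight at 37 °C, streptavidin-enriched and acid-eluted. Peptides were run on Orbitrap Eclipse LC-MS/MS with FAIMS and quantified in FragPipe. The log2 competition ratio per cysteine is mean control-channel over mean compound-channel reporter intensity. Duplicate channels and three replicates were used, and cysteines quantified in only one replicate were excluded.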

log2 ratio of iodoacetamide-alkyne labeling, inactive:
UniProt Q8N4M1_C3 0.375
PHF10 C380 (UniProt Q8WUB8) 0.16
FBXO30 C396 (UniProt Q8TB52) 0.0458
UniProt Q8NBJ5_C412 -0.0697
AHCTF1 C521 (UniProt Q8WYP5) 0.152
UniProt Q8NC60_C393 -0.0476
NUP35 C255 (UniProt Q8NFH5) 0.191
BANP C113 (UniProt Q8N9N5) 0.326
UniProt Q8WXK3_C9 0.416
DGCR8 C256 (UniProt Q8WYQ5) -0.0192
PPP4R1 C78 (UniProt Q8TF05) -0.00764
EXOC6 C66 (UniProt Q8TAG9) -0.236
NEDD1 C541 (UniProt Q8NHV4) 0.0951
MRPL43 C91 (UniProt Q8N983) 0.0325
LRRC47 C249 (UniProt Q8N1G4) 0.216
NUP133 C702 (UniProt Q8WUM0) -0.235
UniProt Q8N1I0_C1723 0.543
PPFIBP2 C446 (UniProt Q8ND30) 0.231
NUDT8 C224 (UniProt Q8WV74) 0.347
C1orf131 C100 (UniProt Q8NDD1) 0.394
VPS37A C325 (UniProt Q8NEZ2) 0.186
SRBD1 C120 (UniProt Q8N5C6) 0.217
UBR7 C260 (UniProt Q8N806) 0.224
UniProt Q8WXA9_C494 0.291
FBXO30 C592 (UniProt Q8TB52) 0.0605
PDCD6IP C231 (UniProt Q8WUM4) 0.175
INTS1 C969 (UniProt Q8N201) 0.357
NPLOC4 C208 (UniProt Q8TAT6) 0.104
ZNF280C C530 (UniProt Q8ND82) 0.138
GEMIN6 C128 (UniProt Q8WXD5) 0.185
TDRD7 C1029 (UniProt Q8NHU6) 0.369
NOC3L C683 (UniProt Q8WTT2) 0.00677
ARMC10 C59 (UniProt Q8N2F6) 0.152
UniProt Q8NI60_C641 0.326
BCL7C C211 (UniProt Q8WUZ0) 0.167
TTL C91 (UniProt Q8NG68) 0.0628
NUP133 C1037 (UniProt Q8WUM0) 0.0719

For reference, some entries already given:
log2 ratio of iodoacetamide-alkyne labeling, inactive:
UniProt Q8NI60_C641 0.326
BCL7C C211 (UniProt Q8WUZ0) 0.167
